Some of the results follow. These are further read-outs of the screen, such as a control signal, another cell line or another target. No call is given for them. The list favours compounds with an active or inconclusive main result. Words in brackets tell the shape of the fitted curve; partial curves, single points and poor fits give uncertain potencies.
Test: qHTS Assay for Lipid Storage Modulators in Drosophila S3 Cells;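 as to cell number change: cells counted by Cell Tracker Red CMTPX staining in the red channel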
Conditions: BODIPY lipid droplet fluorescence, 18-24 h; for cell number change: measured here: cell count max response, cells fed with added oleic acid
Method in brief: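 Drosophila S3 cells loaded with oleic acid (400 uM, as added) and compounds at several concentrations; lipid droplets imaged by 488-nm laser-scanning cytometry, 500–530 nm intensity and object ratio to cell channel. Percent activity normalized to 20 uM Triacsin C.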

[1] = measured here: cell number channel AC50, cells fed with added oleic acid
[2] = measured here: lipid fluorescence (Fed channel) AC50, cells fed with added oleic acid

Structure (SMILES)	AC50 [1]	cell number change [%]	AC50 [2]
Cc1ccc(C(=O)OC(C)C(=O)Nc2ccc(S(N)(=O)=O)cc2)cc1S(=O)(=O)N1CCOCC1 (centres undefined)	4110 nM [rising, single point]		
Cc1[nH]cnc1CSCCN	20600 nM [rising, partial curve, poor fit]	43.3	6510 nM [falling, single point]
O=C(COC(=O)c1cccc(S(=O)(=O)N2CCN(c3ccccc3)CC2)c1)NCC1CCCO1 (centres undefined)		-18	32600 nM [falling, single point]
C/C(=N/Nc1nc(-c2ccc(Cl)cc2)cs1)c1cccs1		3.64	4110 nM [falling, partial curve]
O=C(NCCN1CCN(c2ccccc2F)CC1)C1CC(=O)N(C2CCCC2)C1 (centres undefined)		10.9	461 nM [rising, single point]
Cc1ccc(CSc2[nH]c(=O)ncc2C)cc1		10.4	29100 nM [rising, single point]
CCOc1ccc(C(=O)N(Cc2ccc(N(C)C)cc2)C2CCS(=O)(=O)C2)cc1 (centres undefined)	461 nM [rising, single point]	237	651 nM [rising, single point]
Cc1cccc(C(=O)NCCNC(=O)c2cccc(C)c2)c1	7310 nM [rising, partial curve, poor fit]	13.6	
Cc1[nH]n(-c2ccccc2)c(=O)c1C(C[N+](=O)[O-])c1ccc(Br)cc1 (centres undefined)		0.563	731 nM [falling, single point]
CCN(CC)S(=O)(=O)c1ccc2c(c1)c(=O)c(C(=O)N1CCN(c3ccccn3)CC1)cn2C		17	51.7 nM [rising, full curve, poor fit]
COc1cccc(Nc2nn3c(=O)c4ccccc4nc3s2)c1	7310 nM [falling, single point]	-39.5	
CC1(C)NC(=O)N(CCCOc2ccc(Br)cc2Cl)C1=O		1.15	
COc1ccc(CN2CCCCC2C)c(C)c1C (centres undefined)		-20.6	1160 nM [falling, full curve]
C/C(Cc1ccccc1)=N\NC(=O)CNC(=O)c1ccc(Br)cc1	231 nM [falling, full curve, poor fit]	-41.1	4.61 nM [falling, full curve, poor fit]
OCc1cn(-c2ccccc2)nc1-c1ccc(-c2nn(-c3ccccc3)cc2CO)cc1		-0.065	
O=C(NNS(=O)(=O)c1ccc2ccccc2c1)C1CCN(Cc2ccccc2)CC1	731 nM [rising, full curve, poor fit]	29	23100 nM [rising, single point]
c1csc(-c2nn3c(C4COc5ccccc5O4)nnc3s2)c1 (centres undefined)			1300 nM [rising, partial curve]
O=C(OCCN(C1=NS(=O)(=O)c2ccccc21)c1ccccc1Cl)c1ccc(Cl)cc1	16400 nM [rising, partial curve]	58.9	5170 nM [rising, full curve]
O=C(c1cccc(COc2ccc(Cl)cc2Cl)c1)N1CCN(c2ccccn2)CC1			651 nM [rising, full curve]
CC(C)(C)n1cnnc1Sc1ncccc1[N+](=O)[O-]		-13.9	1840 nM [falling, partial curve]
CNC(=S)Nc1ccc(N2CCN(c3ccc(C(F)(F)F)cn3)CC2)nc1	29100 nM [falling, single point]	-43	

Structure (SMILES)	AC50 [1]	cell number change [%]	AC50 [2]
O=C(N/N=C/c1ccccc1C(=O)O)c1ccncc1		5.18	326 nM [rising, partial curve, poor fit]
Cc1ccc(C(=O)NCC(=O)OCC(=O)c2ccc3c(c2)NC(=O)CO3)cc1C	3260 nM [rising, full curve]	54.8	
COCCSc1nnc(NC(=O)C2CCCO2)s1 (centres undefined)		9.81	920 nM [falling, full curve, poor fit]
O=S(=O)(c1ccccc1F)N1CCc2ccccc2C1		-0.702	
Cc1cc(C(F)F)n2nc(C(=O)O)nc2n1		-14.5	4.61 nM [falling, full curve, poor fit]
COc1ccc(S(=O)(=O)Nc2c(O)c3ccccc3oc2=O)cc1		-10.3	
COc1ccc(-c2nc(-c3ccncc3)no2)cc1OC		26	
O=c1[nH]c(=O)n(Cc2ccccc2)c2nc(-c3ccc(Oc4ccc(F)cc4)c([N+](=O)[O-])c3)n(CCO)c12	16400 nM [falling, single point]	-46.4	18400 nM [falling, single point]
CCCCCCn1c(N2CCC(C)CC2)nc2c1c(=O)[nH]c(=O)n2C	5170 nM [falling, partial curve]	-35.5	
COc1cc(/C=N/NC(=S)NC2CC3CC2C2C=CCC32)ccc1O (centres undefined)		-16.9	18400 nM [falling, single point]
COc1ccc(C2C(C(=O)c3ccc(C)o3)=C(O)C(=O)N2CC2CCCO2)cc1OC (centres undefined)		-4.91	164 nM [rising, full curve]
COc1ccc(OC)c(S(=O)(=O)N2CCC(C(=O)N3CCN(c4ccc(F)cc4)CC3)CC2)c1		-10.1	
CSc1ccccc1C(=O)Nc1cc2c(cc1C(=O)O)OCCCO2		-19.7	
CCn1c(=O)c(C2=NS(=O)(=O)c3ccccc3N2)c(O)c2ccccc21		-9.24	
Cc1c(C(C)(C)O)[nH]c2ccc(C#N)cc12		-15.6	164 nM [falling, partial curve, poor fit]
O=C(Nc1ccc2c(c1)CCC2)c1cccc(S(=O)(=O)N2CCN(c3ccccc3)CC2)c1	2590 nM [rising, full curve]	82.2	3660 nM [rising, full curve]
Cc1cc(C)n(C(=O)CNC(=O)COc2ccccc2)n1		5.85	
Clc1ccc(-c2csc3ncnc(Cl)c23)cc1		18.4	
COc1cccc(/C=C2/CN(C)CC3=C2OC(N)=C(C#N)C3c2cccc(OC)c2)c1 (centres undefined)	14600 nM [falling, partial curve, poor fit]	-37.4	14600 nM [falling, partial curve, poor fit]
Cc1cc(C)c([N+](=O)[O-])cc1NC(=O)CCSc1ccccc1Cl		5.73	146 nM [rising, full curve, poor fit]
COc1cccc(/C=N/n2c(-c3n[nH]c4c3CCC4)n[nH]c2=S)c1OC			4610 nM [rising, single point]

Structure (SMILES)	AC50 [1]	cell number change [%]	AC50 [2]
CCOC(=O)C1(Cc2cccc(F)c2)CCN(Cc2ccc(COC)o2)CC1		18	
CCn1c(=O)c2c(cnn2C)c2ccccc21		-21.6	411 nM [rising, partial curve, poor fit]
COc1cc(C)c(C)cc1S(=O)(=O)N1CCN(Cc2ccc3c(c2)OCO3)CC1		-18.4	
c1ccc2c(c1)NC1(CCCCCC1)n1c-2nc2ccccc21		28.1	92 nM [rising, full curve, poor fit]
CC(C)(C)OC(=O)N1CCN(C(=O)c2[nH]cnc2C(=O)NCc2ccccc2)CC1	130 nM [falling, full curve, poor fit]	-36.2	651 nM [falling, single point]
CCOc1ccc(N(C(=O)CNC(=O)c2ccco2)C(C(=O)NC2CCCC2)c2cccnc2)cc1 (centres undefined)		-10.5	
COc1ccc(NC(=O)Cn2nnc(-c3ccccc3NC(=O)c3cccs3)n2)cc1	820 nM [rising, full curve, poor fit]	-13.6	29100 nM [falling, single point]
O=C1NC(=S)S/C1=C/c1ccc(N2CCOCC2)o1	5170 nM [falling, full curve]	-96.9	4610 nM [falling, full curve]
NS(=O)(=O)c1ccc(N/N=C/c2ccccn2)c([N+](=O)[O-])c1			29100 nM [rising, single point]
COc1ccc(-c2csc(NC(=O)C3CC(=O)N(Cc4ccccc4)C3)n2)cc1OC (centres undefined)		-18.1	3660 nM [falling, partial curve]
Cc1ccc(N2C(N)=C(C#N)C(c3cccnc3)C3=C2CCCC3=O)cc1 (centres undefined)		1.98	731 nM [rising, full curve, poor fit]
COc1ccc2[nH]c(C(=O)N3CCN(C)CC3)c(C)c2c1		21.6	
O=C(CCCCn1c(=O)[nH]c2ccccc2c1=O)N1CCN(c2ncccn2)CC1		13.7	731 nM [rising, full curve]
COc1cc(-c2c(-c3ccc4c(c3)OCO4)noc2-c2ccsc2)ccc1F		-5.69	
Cn1c(SC2C(=O)CC(C)(C)CC2=O)nnc1-c1ccco1	5.17 nM [falling, full curve, poor fit]	-2.64	29100 nM [falling, single point]
CC1CC1C(=O)OCC(=O)Nc1cccc(S(=O)(=O)NC2=NCCCCC2)c1 (centres undefined)		8.22	16400 nM [rising, single point]
O=C(c1ccc(Br)o1)N1CCN(c2ccc(F)cc2)CC1		-0.944	6510 nM [rising, full curve, poor fit]
c1ccc(-c2nc3c4ccccc4ccn3c2CN2CCOCC2)cc1		-5.42	206 nM [falling, full curve, poor fit]
COC(=O)/C(C#N)=C/c1cc(C)sc1C	36.6 nM [falling, full curve, poor fit]	-2.51	

Among those listed so far, these have an aryl methoxy group:
Structure (SMILES)	AC50 [1]	cell number change [%]	AC50 [2]
COc1cccc(Nc2nn3c(=O)c4ccccc4nc3s2)c1	7310 nM [falling, single point]	-39.5	
COc1ccc(CN2CCCCC2C)c(C)c1C (centres undefined)		-20.6	1160 nM [falling, full curve]
COc1ccc(S(=O)(=O)Nc2c(O)c3ccccc3oc2=O)cc1		-10.3	
COc1ccc(-c2nc(-c3ccncc3)no2)cc1OC		26	
COc1cc(/C=N/NC(=S)NC2CC3CC2C2C=CCC32)ccc1O (centres undefined)		-16.9	18400 nM [falling, single point]
COc1ccc(C2C(C(=O)c3ccc(C)o3)=C(O)C(=O)N2CC2CCCO2)cc1OC (centres undefined)		-4.91	164 nM [rising, full curve]
COc1ccc(OC)c(S(=O)(=O)N2CCC(C(=O)N3CCN(c4ccc(F)cc4)CC3)CC2)c1		-10.1	
COc1cccc(/C=C2/CN(C)CC3=C2OC(N)=C(C#N)C3c2cccc(OC)c2)c1 (centres undefined)	14600 nM [falling, partial curve, poor fit]	-37.4	14600 nM [falling, partial curve, poor fit]
COc1cccc(/C=N/n2c(-c3n[nH]c4c3CCC4)n[nH]c2=S)c1OC			4610 nM [rising, single point]
COc1cc(C)c(C)cc1S(=O)(=O)N1CCN(Cc2ccc3c(c2)OCO3)CC1		-18.4	
COc1ccc(NC(=O)Cn2nnc(-c3ccccc3NC(=O)c3cccs3)n2)cc1	820 nM [rising, full curve, poor fit]	-13.6	29100 nM [falling, single point]
COc1ccc(-c2csc(NC(=O)C3CC(=O)N(Cc4ccccc4)C3)n2)cc1OC (centres undefined)		-18.1	3660 nM [falling, partial curve]
COc1ccc2[nH]c(C(=O)N3CCN(C)CC3)c(C)c2c1		21.6	
COc1cc(-c2c(-c3ccc4c(c3)OCO4)noc2-c2ccsc2)ccc1F		-5.69	

Single records, from the list above.
COc1ccc2[nH]c(C(=O)N3CCN(C)CC3)c(C)c2c1 is listed with cell number change [%]: 21.6
CCOC(=O)C1(Cc2cccc(F)c2)CCN(Cc2ccc(COC)o2)CC1 is listed with cell number change [%]: 18
